# From the supplement of paper PMC10849652
# By UniProt entry, the sequences of proteins in these tests, tags left out. Where a name states a change or a piece, a line headed by the entry shows the natural chain unless it says otherwise.
# UniProt P63104: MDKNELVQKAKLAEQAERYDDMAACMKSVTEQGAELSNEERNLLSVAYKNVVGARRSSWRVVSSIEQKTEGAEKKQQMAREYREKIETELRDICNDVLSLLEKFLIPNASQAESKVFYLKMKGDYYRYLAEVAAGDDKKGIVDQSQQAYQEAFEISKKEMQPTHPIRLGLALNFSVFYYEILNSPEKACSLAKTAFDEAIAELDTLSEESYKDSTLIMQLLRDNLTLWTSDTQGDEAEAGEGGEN
# UniProt Q9NQW7: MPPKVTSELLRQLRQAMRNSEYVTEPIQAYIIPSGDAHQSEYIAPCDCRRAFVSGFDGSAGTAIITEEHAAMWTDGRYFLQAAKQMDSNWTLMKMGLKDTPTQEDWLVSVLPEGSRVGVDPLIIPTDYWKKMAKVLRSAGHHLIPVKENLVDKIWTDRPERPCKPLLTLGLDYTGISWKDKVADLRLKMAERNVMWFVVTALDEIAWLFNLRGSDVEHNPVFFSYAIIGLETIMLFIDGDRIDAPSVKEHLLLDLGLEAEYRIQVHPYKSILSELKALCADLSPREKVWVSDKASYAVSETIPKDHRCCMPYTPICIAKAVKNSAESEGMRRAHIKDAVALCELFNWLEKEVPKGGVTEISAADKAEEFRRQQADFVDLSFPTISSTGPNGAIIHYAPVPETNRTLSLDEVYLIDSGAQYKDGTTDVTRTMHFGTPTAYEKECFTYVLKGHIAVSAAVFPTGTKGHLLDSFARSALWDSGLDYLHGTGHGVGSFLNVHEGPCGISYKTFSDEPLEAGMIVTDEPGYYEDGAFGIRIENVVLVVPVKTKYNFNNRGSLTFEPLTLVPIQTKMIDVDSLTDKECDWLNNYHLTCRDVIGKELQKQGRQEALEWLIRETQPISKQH
# UniProt Q6NZY4: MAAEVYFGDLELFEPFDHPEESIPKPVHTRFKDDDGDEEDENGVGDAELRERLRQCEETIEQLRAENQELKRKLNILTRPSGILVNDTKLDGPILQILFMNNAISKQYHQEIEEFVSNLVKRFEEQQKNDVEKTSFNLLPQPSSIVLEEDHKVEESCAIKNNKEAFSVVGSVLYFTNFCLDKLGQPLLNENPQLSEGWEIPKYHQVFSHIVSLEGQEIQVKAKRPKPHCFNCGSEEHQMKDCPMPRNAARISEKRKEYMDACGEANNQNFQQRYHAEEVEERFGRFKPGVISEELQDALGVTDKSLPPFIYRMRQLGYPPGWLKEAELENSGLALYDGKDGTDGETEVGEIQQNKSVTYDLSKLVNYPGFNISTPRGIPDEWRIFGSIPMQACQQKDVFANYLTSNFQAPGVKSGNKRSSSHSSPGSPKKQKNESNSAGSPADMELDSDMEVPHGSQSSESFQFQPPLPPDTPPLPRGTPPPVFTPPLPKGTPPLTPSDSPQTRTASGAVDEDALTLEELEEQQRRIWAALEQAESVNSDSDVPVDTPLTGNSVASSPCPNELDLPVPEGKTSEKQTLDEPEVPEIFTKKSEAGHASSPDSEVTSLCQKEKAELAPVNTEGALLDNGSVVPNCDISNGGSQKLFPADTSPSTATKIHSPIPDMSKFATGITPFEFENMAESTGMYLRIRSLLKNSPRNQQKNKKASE
# UniProt Q9GZM5: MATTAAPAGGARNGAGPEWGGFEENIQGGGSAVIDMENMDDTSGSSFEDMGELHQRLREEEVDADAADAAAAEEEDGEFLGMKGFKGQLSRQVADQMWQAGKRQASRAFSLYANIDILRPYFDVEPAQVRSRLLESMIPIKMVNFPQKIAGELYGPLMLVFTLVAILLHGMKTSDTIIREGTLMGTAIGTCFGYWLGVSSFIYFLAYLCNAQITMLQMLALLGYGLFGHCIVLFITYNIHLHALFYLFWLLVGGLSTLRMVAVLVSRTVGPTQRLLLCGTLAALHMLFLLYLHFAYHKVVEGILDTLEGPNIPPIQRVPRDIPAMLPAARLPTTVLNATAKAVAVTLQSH
# UniProt Q6FIF0: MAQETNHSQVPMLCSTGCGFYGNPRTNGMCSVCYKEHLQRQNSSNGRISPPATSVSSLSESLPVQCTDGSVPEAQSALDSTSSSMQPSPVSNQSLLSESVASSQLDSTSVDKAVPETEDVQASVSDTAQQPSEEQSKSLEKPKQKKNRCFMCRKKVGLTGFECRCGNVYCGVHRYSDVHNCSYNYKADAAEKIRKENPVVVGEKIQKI
# UniProt Q9BW85: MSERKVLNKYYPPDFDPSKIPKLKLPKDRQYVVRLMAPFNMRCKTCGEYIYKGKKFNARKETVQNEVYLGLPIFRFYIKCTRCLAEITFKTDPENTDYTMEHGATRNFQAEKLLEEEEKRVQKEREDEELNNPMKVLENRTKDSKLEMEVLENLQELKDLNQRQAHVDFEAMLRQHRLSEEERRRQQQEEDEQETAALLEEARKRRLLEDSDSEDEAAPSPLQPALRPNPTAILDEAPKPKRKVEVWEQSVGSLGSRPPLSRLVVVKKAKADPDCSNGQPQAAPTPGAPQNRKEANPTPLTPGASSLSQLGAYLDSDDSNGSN
# UniProt Q9H0D6: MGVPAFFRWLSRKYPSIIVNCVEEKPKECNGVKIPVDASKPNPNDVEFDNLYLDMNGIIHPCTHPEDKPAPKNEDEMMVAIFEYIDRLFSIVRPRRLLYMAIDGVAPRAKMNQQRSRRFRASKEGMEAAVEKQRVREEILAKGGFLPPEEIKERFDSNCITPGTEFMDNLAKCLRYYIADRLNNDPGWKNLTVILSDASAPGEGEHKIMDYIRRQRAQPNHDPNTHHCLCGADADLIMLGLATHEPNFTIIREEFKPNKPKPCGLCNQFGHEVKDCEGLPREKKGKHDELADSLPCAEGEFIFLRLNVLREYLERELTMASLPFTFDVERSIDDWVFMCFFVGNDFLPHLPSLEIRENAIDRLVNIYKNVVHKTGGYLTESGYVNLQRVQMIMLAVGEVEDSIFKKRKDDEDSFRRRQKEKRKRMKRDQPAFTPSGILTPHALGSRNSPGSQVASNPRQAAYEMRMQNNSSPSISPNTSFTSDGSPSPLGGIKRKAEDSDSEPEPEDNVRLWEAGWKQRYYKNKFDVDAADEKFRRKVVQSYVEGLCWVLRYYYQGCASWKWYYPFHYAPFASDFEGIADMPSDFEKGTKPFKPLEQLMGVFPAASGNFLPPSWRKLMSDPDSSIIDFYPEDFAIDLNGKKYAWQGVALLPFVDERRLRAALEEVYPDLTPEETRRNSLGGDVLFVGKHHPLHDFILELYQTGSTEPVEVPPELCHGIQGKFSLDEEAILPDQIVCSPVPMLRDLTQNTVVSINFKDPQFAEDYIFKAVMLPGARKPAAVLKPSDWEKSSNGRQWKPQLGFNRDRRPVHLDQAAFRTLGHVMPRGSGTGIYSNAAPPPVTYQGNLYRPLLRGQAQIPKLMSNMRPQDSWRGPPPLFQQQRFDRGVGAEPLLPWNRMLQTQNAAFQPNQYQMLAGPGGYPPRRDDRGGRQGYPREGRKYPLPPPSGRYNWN
# UniProt Q96QU8: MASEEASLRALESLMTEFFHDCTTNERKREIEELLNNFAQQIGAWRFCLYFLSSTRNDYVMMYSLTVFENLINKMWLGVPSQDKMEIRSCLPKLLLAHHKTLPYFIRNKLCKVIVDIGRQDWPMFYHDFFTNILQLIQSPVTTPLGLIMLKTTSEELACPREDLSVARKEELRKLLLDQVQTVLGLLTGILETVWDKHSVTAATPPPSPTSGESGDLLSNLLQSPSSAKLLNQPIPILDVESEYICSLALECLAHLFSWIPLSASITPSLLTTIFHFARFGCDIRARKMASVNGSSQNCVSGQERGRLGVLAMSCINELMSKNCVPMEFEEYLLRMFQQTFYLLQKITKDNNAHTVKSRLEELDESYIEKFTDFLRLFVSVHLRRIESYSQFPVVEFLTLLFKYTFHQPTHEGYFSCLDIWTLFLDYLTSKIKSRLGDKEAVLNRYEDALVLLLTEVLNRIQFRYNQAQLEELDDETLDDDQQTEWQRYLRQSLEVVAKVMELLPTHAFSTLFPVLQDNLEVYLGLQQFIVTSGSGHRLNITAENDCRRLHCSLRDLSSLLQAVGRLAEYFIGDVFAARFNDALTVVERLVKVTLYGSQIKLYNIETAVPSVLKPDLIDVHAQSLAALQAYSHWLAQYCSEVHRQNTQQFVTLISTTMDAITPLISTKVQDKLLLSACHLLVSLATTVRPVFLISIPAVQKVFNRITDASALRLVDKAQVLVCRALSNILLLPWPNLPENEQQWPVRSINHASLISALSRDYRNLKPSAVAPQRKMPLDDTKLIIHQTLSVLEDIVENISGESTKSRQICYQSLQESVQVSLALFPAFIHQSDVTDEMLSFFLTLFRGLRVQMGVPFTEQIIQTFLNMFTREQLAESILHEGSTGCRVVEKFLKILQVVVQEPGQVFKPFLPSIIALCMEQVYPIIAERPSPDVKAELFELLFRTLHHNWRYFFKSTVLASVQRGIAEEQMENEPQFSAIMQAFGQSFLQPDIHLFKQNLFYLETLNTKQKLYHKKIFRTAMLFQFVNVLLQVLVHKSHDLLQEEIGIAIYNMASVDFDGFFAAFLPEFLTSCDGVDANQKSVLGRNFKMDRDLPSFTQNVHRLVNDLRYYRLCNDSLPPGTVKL
# UniProt Q5VVQ6: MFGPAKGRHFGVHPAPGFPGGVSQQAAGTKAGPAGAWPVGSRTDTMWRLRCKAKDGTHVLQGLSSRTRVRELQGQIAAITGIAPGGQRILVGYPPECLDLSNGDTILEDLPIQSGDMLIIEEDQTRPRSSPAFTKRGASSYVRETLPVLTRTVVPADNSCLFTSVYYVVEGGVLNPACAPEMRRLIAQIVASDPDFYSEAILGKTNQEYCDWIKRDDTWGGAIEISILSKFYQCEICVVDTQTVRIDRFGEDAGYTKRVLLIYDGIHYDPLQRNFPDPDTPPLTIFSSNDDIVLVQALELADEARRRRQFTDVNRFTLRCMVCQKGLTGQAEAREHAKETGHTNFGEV
# UniProt Q04917: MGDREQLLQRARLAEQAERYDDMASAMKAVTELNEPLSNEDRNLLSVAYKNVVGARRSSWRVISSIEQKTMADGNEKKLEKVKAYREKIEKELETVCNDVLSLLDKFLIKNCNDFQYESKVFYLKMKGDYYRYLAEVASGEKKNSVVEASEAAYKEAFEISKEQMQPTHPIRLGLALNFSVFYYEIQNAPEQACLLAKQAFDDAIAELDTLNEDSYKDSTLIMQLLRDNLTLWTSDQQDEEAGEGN
# UniProt Q9NQH7: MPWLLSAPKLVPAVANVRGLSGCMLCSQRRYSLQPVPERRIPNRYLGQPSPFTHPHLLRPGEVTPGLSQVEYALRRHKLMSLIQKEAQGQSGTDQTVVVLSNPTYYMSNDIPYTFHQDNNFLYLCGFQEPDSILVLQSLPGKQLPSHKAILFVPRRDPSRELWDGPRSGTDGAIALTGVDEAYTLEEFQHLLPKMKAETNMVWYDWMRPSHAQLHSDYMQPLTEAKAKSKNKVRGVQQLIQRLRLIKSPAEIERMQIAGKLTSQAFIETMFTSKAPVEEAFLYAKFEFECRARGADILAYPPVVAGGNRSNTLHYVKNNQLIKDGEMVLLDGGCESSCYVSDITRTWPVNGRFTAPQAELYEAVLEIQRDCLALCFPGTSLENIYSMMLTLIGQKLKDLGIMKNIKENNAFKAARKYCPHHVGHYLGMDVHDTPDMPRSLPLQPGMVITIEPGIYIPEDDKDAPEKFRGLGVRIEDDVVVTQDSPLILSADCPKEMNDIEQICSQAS
# UniProt Q9UBH6: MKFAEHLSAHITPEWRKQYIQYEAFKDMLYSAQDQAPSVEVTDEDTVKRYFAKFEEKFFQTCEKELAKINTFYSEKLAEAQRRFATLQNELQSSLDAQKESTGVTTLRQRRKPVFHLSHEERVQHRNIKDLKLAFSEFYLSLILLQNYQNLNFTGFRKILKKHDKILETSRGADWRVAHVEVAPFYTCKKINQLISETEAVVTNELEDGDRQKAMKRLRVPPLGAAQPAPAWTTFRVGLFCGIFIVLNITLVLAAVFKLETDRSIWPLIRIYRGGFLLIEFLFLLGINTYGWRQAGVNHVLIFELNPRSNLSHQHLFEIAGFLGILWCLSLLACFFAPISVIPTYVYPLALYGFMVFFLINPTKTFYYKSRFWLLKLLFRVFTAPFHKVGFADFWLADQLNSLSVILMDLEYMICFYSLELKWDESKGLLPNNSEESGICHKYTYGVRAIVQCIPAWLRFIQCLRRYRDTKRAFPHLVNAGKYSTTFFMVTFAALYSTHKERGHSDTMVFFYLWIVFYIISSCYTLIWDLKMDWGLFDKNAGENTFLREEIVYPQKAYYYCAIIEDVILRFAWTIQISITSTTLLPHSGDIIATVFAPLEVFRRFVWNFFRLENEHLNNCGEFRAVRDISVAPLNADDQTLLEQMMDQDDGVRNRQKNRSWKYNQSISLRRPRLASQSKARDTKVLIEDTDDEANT
# The list shows a part of the results.
# Experiments:
# Test in all cases: log2 fold change, soluble protein after heating vs DMSO (PISA); higher = thermal stabilisation; K562 cells, 10 uM, 30 min; active = over 0.2 and 3.5 SD of the protein, either way, in both replicates (recomputed)
# bafetinib = compound: Cc1ccc(NC(=O)c2ccc(CN3CC[C@H](N(C)C)C3)c(C(F)(F)F)c2)cc1Nc1nccc(-c2cncnc2)n1 [bafetinib]
# Outline: (§1)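 Aliquots of K562 cells (2×10^6 cells/mL) treated with 10 μM compound for 30 min were heated for 3 min over 48°C-58°C. After pooling and extraction in PBS with 0.5% NP-40 at 4°C, soluble protein from a 21,000xg, 90 min spin was quantified by TMTpro 16plex LC-MS/MS with channel sums equalised. Thermal stability is expressed against control samples, from duplicates, as a log2 fold change.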
# [1] = compound: Cc1cccc(CC(=O)N2CCc3c2ccc(-c2cn(C)c4ncnc(N)c24)c3F)n1
# Outline: as §1
# nilotinib = compound: Cc1cn(-c2cc(NC(=O)c3ccc(C)c(Nc4nccc(-c5cccnc5)n4)c3)cc(C(F)(F)F)c2)cn1 [nilotinib]
# Outline: as §1
# [2] = compound: Cc1nc(Nc2n[nH]c3c2CN(C(=O)N[C@H](CN(C)C)c2ccccc2)C3(C)C)c2sccc2n1
# Outline: as §1
# dasatinib = compound: Cc1nc(Nc2ncc(C(=O)Nc3c(C)cccc3Cl)s2)cc(N2CCN(CCO)CC2)n1 [dasatinib]
# Outline: as §1
# [3] = compound: Cc1ncc(-c2ccnc(Nc3ccc(S(C)(=O)=O)cc3)n2)n1C(C)C
# Outline: as §1
# [4] = compound: Cn1cc(-c2ccc3c(c2)CCN3C(=O)Cc2cccc(C(F)(F)F)c2)c2c(N)ncnc21
# Outline: as §1
# [5] = compound: Cn1cc(-c2ccc3nnc(C(F)(F)c4ccc5ncccc5c4)n3n2)cn1
# Outline: as §1
# tipifarnib = compound: Cn1cncc1[C@@](N)(c1ccc(Cl)cc1)c1ccc2c(c1)c(-c1cccc(Cl)c1)cc(=O)n2C [tipifarnib]
# Outline: as §1
# mubritinib = compound: FC(F)(F)c1ccc(/C=C/c2nc(COc3ccc(CCCCn4ccnn4)cc3)co2)cc1 [mubritinib]
# Outline: as §1
# [6] = compound: NC(=O)Nc1cc(-c2cccc(F)c2)sc1C(=O)N[C@H]1CCCNC1
# Outline: as §1
# [7] = compound: NC(=O)c1cnc(N[C@@H]2CCCC[C@@H]2N)nc1Nc1cccc(-n2nccn2)c1
# Outline: as §1
# [8] = compound: NC1(c2ccc(-c3nc4ccn5c(=O)[nH]nc5c4cc3-c3ccccc3)cc2)CCC1
# Outline: as §1
# [9] = compound: NCC(=O)Nc1ccc(-n2nc(C(F)(F)F)cc2-c2ccc3c(ccc4ccccc43)c2)cc1
# Outline: as §1
# entinostat = compound: Nc1ccccc1NC(=O)c1ccc(CNC(=O)OCc2cccnc2)cc1 [entinostat]
# Outline: as §1
# vorinostat = compound: O=C(CCCCCCC(=O)Nc1ccccc1)NO [vorinostat]
# Outline: as §1
# citarinostat = compound: O=C(CCCCCCNC(=O)c1cnc(N(c2ccccc2)c2ccccc2Cl)nc1)NO [citarinostat]
# Outline: as §1
# silmitasertib = compound: O=C(O)c1ccc2c(c1)nc(Nc1cccc(Cl)c1)c1ccncc12 [silmitasertib]
# Outline: as §1
# [10] = compound: O=C1NC(=O)C(c2cnc3ccccn23)=C1c1cn2c3c(cc(F)cc13)CN(C(=O)N1CCCCC1)CC2
# Outline: as §1
# [11] = compound: c1cc(OCCN2CCCCC2)cc(-c2n[nH]c3ccc(-c4nnc[nH]4)cc23)c1
# Outline: as §1
Target,log2 fold change (bafetinib),log2 fold change [1],log2 fold change (nilotinib),log2 fold change [2],log2 fold change (dasatinib),log2 fold change [3],log2 fold change [4],log2 fold change [5],log2 fold change (tipifarnib),log2 fold change (mubritinib),log2 fold change [6],log2 fold change [7],log2 fold change [8],log2 fold change [9],log2 fold change (entinostat),log2 fold change (vorinostat),log2 fold change (citarinostat),log2 fold change (silmitasertib),log2 fold change [10],log2 fold change [11]
YWHAZ (UniProt P63104),inactive: -0.022,inactive: 0.029,inactive: 0.04,inactive: -0.015,inactive: -0.044,inactive: -0.003,inactive: 0.052,inactive: -0.045,inactive: -0.123,inactive: 0.015,inactive: 0.098,inactive: 0.108,inactive: 0.066,inactive: 0.084,inactive: 0.032,inactive: -0.013,inactive: -0.013,inactive: -0.078,inactive: -0.025,inactive: 0.05
XPO7 (UniProt E7ESC6),inactive: -0.104,inactive: 0.032,inactive: -0.027,inactive: -0.022,inactive: -0.036,inactive: -0.004,inactive: 0.038,inactive: 0.002,inactive: -0.03,inactive: 0.042,inactive: -0.018,inactive: -0.037,inactive: -0.117,inactive: -0.029,inactive: 0.023,inactive: 0,inactive: 0.05,inactive: 0.005,inactive: -0.056,inactive: -0.029
XPNPEP1 isoform 3 (UniProt Q9NQW7),inactive: -0.047,inactive: -0.013,inactive: -0.036,inactive: 0.014,inactive: -0.086,inactive: -0.028,inactive: 0.084,inactive: 0.039,inactive: -0.033,inactive: 0.042,inactive: -0.04,inactive: -0.052,inactive: -0.126,inactive: -0.07,inactive: 0.015,active: 0.399,inactive: 0.062,inactive: -0.037,inactive: -0.02,inactive: 0.025
ZCCHC8 (UniProt Q6NZY4),inactive: -0.043,inactive: 0.004,inactive: -0.006,inactive: 0.043,inactive: -0.108,inactive: 0.026,inactive: -0.049,inactive: -0.062,inactive: -0.023,inactive: 0.049,inactive: 0.045,inactive: -0.033,inactive: 0.008,inactive: -0.073,inactive: 0.016,inactive: 0.012,inactive: 0.003,inactive: -0.019,inactive: 0.026,inactive: -0.041
YIPF3 (UniProt Q9GZM5),inactive: -0.05,inactive: 0.039,inactive: 0.005,inactive: -0.036,inactive: 0.064,inactive: 0.03,inactive: 0.086,inactive: -0.041,inactive: 0.093,inactive: -0.013,inactive: 0.042,inactive: 0.013,inactive: -0.027,inactive: -0.049,inactive: -0.02,inactive: -0.03,inactive: 0.039,inactive: 0.005,inactive: 0.004,inactive: -0.021
ZMIZ1 (UniProt Q9ULJ6),inactive: -0.065,inactive: 0.007,inactive: -0.014,inactive: -0.021,inactive: 0.016,inactive: -0.073,inactive: 0.028,inactive: 0.02,inactive: -0.034,inactive: 0.067,inactive: 0.001,inactive: -0.029,inactive: -0.081,inactive: -0.025,inactive: 0.028,inactive: 0.017,inactive: 0.027,inactive: -0.015,inactive: 0.02,inactive: -0.016
ZFAND6 (UniProt Q6FIF0),inactive: -0.013,inactive: -0.014,inactive: 0.014,inactive: 0.028,inactive: 0.03,inactive: -0.031,inactive: 0.067,inactive: -0.009,inactive: -0.09,inactive: 0.017,inactive: 0.12,inactive: 0.089,inactive: 0.056,inactive: 0.061,inactive: -0.007,inactive: 0.04,inactive: -0.081,inactive: -0.018,inactive: -0.013,inactive: -0.006
YJU2 (UniProt Q9BW85),inactive: -0.077,inactive: -0.037,inactive: 0.024,inactive: -0.012,inactive: -0.006,inactive: 0.061,inactive: -0.012,inactive: 0.04,inactive: -0.002,inactive: -0.027,inactive: -0.004,inactive: 0.049,inactive: 0.026,inactive: -0.043,inactive: -0.034,inactive: -0.024,inactive: 0.074,inactive: 0.087,inactive: -0.153,inactive: -0.005
XRN2 (UniProt Q9H0D6),inactive: -0.007,inactive: -0.069,inactive: -0.001,inactive: 0.002,inactive: 0.01,inactive: -0.019,inactive: -0.029,inactive: 0.005,inactive: 0.028,inactive: -0.015,inactive: -0.05,inactive: -0.002,inactive: 0.002,inactive: 0.013,inactive: -0.04,inactive: 0.025,inactive: 0.047,inactive: 0.025,inactive: 0.01,inactive: 0.015
XPO6 (UniProt Q96QU8),inactive: 0.057,inactive: -0.05,inactive: -0.143,inactive: -0.148,inactive: -0.109,inactive: 0.027,inactive: -0.001,inactive: -0.117,inactive: -0.111,inactive: 0.092,inactive: 0.068,inactive: -0.103,inactive: -0.154,inactive: -0.118,inactive: 0.025,inactive: 0.048,inactive: 0.085,inactive: 0.01,inactive: 0.099,inactive: -0.038
ZC3HC1 (UniProt Q86WB0),inactive: 0.018,inactive: 0.029,inactive: -0.052,inactive: -0.103,inactive: -0.214,inactive: -0.01,inactive: 0.014,inactive: 0.038,inactive: -0.183,inactive: -0.049,inactive: -0.016,inactive: -0.054,inactive: -0.091,inactive: -0.076,inactive: 0.1,inactive: 0.04,inactive: 0.125,inactive: 0.06,inactive: -0.132,inactive: -0.046
YOD1 (UniProt Q5VVQ6),inactive: -0.07,inactive: 0.041,inactive: -0.061,inactive: -0.089,inactive: -0.115,inactive: -0.018,inactive: 0.023,inactive: 0.057,inactive: -0.048,inactive: 0.108,inactive: -0.079,inactive: -0.061,inactive: -0.138,inactive: -0.015,inactive: -0.143,inactive: 0.033,inactive: 0.067,inactive: 0.021,inactive: -0.079,inactive: 0.043
YWHAH (UniProt Q04917),inactive: -0.043,inactive: 0.028,inactive: 0.04,inactive: -0.075,inactive: -0.004,inactive: -0.023,inactive: -0.013,inactive: -0.039,inactive: 0.03,inactive: 0.057,inactive: -0.045,inactive: -0.003,inactive: -0.045,inactive: -0.017,inactive: 0.018,inactive: 0,inactive: 0.032,inactive: -0.037,inactive: -0.058,inactive: 0.006
XPNPEP3 (UniProt Q9NQH7),inactive: -0.06,inactive: 0.008,inactive: -0.034,inactive: 0.027,inactive: 0.021,inactive: -0.041,inactive: 0.092,inactive: -0.031,inactive: -0.065,inactive: 0.02,inactive: 0.034,inactive: -0.007,inactive: -0.074,inactive: 0,inactive: -0.024,inactive: -0.002,inactive: -0.007,inactive: -0.004,inactive: -0.02,inactive: -0.022
XPR1 (UniProt Q9UBH6),inactive: 0.01,inactive: -0.061,inactive: 0.015,inactive: -0.063,inactive: -0.008,inactive: 0.009,inactive: 0.035,inactive: -0.015,inactive: -0.004,inactive: -0.015,inactive: -0.042,inactive: -0.016,inactive: -0.027,inactive: 0.008,inactive: 0.023,inactive: 0.049,inactive: -0.01,inactive: -0.009,inactive: -0.059,inactive: -0.056
XPO4 (UniProt Q9C0E2),inactive: -0.077,inactive: 0.015,inactive: -0.01,inactive: 0.005,inactive: -0.016,inactive: 0.013,inactive: -0.006,inactive: -0.001,inactive: 0.003,inactive: 0.081,inactive: -0.023,inactive: -0.032,inactive: -0.086,inactive: -0.05,inactive: 0,inactive: 0.009,inactive: 0.045,inactive: 0.076,inactive: -0.048,inactive: -0.047

# Two neighbouring entries already listed, quoted:
Target,log2 fold change (bafetinib),log2 fold change [1],log2 fold change (nilotinib),log2 fold change [2],log2 fold change (dasatinib),log2 fold change [3],log2 fold change [4],log2 fold change [5],log2 fold change (tipifarnib),log2 fold change (mubritinib),log2 fold change [6],log2 fold change [7],log2 fold change [8],log2 fold change [9],log2 fold change (entinostat),log2 fold change (vorinostat),log2 fold change (citarinostat),log2 fold change (silmitasertib),log2 fold change [10],log2 fold change [11]
ZCCHC8 (UniProt Q6NZY4),inactive: -0.043,inactive: 0.004,inactive: -0.006,inactive: 0.043,inactive: -0.108,inactive: 0.026,inactive: -0.049,inactive: -0.062,inactive: -0.023,inactive: 0.049,inactive: 0.045,inactive: -0.033,inactive: 0.008,inactive: -0.073,inactive: 0.016,inactive: 0.012,inactive: 0.003,inactive: -0.019,inactive: 0.026,inactive: -0.041
YIPF3 (UniProt Q9GZM5),inactive: -0.05,inactive: 0.039,inactive: 0.005,inactive: -0.036,inactive: 0.064,inactive: 0.03,inactive: 0.086,inactive: -0.041,inactive: 0.093,inactive: -0.013,inactive: 0.042,inactive: 0.013,inactive: -0.027,inactive: -0.049,inactive: -0.02,inactive: -0.03,inactive: 0.039,inactive: 0.005,inactive: 0.004,inactive: -0.021
